Assay results from patent US8715947B2, “Inhibition of the interaction between 5T4 oncofoetal glycoproteins and CXC chemokine receptors as a method of identifying chemotaxis inhibitors” (Cancer Research Technology Limited, priority 2009, dated 2014).
At least one compound was matched to its structure with a doubt left.

Test system: ERK phosphorylation
Experiment: ERK phosphorylation in MEFs by Western blot
Assay type: cell-based, mouse
Details: 50 μM PD98059, 50 μM LY294002 or 10 μM AMD3100
Procedure: Western blots were carried out using a BioRad Mini-PROTEAN Tetra (Thermo Fisher) supplemented with protease and phosphatase inhibitor cocktails (Thermo Fisher). RIPA buffer (50 mM Tris-Cl pH 7.4, 150 mM NaCl, 1% NP40, 0.25% Na-deoxycholate, 1 mM PMSF and protease and phosphatase inhibitor cocktail) was used as an alternative method of cell lysis. […] Other primary antibodies used were ERK1/2, phospho-ERK1/2 (Thr202/Tyr204/Thr185/Tyr187), AKT and phospho-AKT (Thr308) (Cell Signalling Technology) at 1:1000. Following secondary antibody labelling using appropriate HRP conjugates (AbSerotec) hybridizing bands were detected using SuperSignal West Dura (Thermo Fischer). For immunoprecipitation experiments cells were lysed in M-PER (Thermo Fischer) according to manufacturer's instructions and enriched for the membrane fraction on a 45% sucrose gradient by ultracentrifugation. 100 μg of the membrane enriched fraction was incubated with 1 μg of rabbit polyclonal anti-CXCR4 (Abcam) or 1 μg of mouse anti-monoclonal h5T4 or appropriate irrelevant control antibodies for 1 hour at room temperature. A 50% slurry of Protein G beads (Amersham) was then added and incubated for 1 hour at room temperature. […]

In the case of `O=c1cc(N2CCOCC2)oc2c(-c3ccccc3)cccc12` [LY294002], the “increase in ERK phosphorylation in response to CXCL12 stimulation” value (WT MEFs) is reported as “but not by the PI3K inhibitor LY294002” and the “increase in ERK1/2 phosphorylation in response to PMA stimulation” value (WT and 5T4KO MEFs) is reported as “independent of both CXCR4 and PI3K activity”.
